This is one part of the list.
How the values were obtained:
Test in all cases: log2 fold change, soluble protein after heating vs DMSO (PISA); higher = thermal stabilisation; K562 lysate, 10 uM; active = over 0.2 and 3.5 SD of the protein, either way, in both replicates (recomputed)
alvocidib = compound: CN1CC[C@H](c2c(O)cc(O)c3c(=O)cc(-c4ccccc4Cl)oc23)[C@H](O)C1 [alvocidib]
How it was run: (§1)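 The values are log-two fold changes in thermal stability compared with solvent controls and come from duplicates. They were obtained by TMTpro 16plex LC-MS/MS, with channel sums equalised, on the supernatant after 21,000xg for 90 min. That supernatant came from crude K562 extract at 1 mg/mL protein treated with 10 μM compound for 30 min, heated for 3 min across 48°C-58°C, pooled and brought to 0.5% NP-40 at 4°C.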

The chains behind the UniProt entries cited, without tags or fusion partners. Where a name states a change or a piece, a line headed by the entry shows the natural chain unless it says otherwise.
UniProt Q86WW8: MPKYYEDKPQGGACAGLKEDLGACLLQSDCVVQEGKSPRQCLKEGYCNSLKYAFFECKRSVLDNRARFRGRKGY
UniProt Q05707: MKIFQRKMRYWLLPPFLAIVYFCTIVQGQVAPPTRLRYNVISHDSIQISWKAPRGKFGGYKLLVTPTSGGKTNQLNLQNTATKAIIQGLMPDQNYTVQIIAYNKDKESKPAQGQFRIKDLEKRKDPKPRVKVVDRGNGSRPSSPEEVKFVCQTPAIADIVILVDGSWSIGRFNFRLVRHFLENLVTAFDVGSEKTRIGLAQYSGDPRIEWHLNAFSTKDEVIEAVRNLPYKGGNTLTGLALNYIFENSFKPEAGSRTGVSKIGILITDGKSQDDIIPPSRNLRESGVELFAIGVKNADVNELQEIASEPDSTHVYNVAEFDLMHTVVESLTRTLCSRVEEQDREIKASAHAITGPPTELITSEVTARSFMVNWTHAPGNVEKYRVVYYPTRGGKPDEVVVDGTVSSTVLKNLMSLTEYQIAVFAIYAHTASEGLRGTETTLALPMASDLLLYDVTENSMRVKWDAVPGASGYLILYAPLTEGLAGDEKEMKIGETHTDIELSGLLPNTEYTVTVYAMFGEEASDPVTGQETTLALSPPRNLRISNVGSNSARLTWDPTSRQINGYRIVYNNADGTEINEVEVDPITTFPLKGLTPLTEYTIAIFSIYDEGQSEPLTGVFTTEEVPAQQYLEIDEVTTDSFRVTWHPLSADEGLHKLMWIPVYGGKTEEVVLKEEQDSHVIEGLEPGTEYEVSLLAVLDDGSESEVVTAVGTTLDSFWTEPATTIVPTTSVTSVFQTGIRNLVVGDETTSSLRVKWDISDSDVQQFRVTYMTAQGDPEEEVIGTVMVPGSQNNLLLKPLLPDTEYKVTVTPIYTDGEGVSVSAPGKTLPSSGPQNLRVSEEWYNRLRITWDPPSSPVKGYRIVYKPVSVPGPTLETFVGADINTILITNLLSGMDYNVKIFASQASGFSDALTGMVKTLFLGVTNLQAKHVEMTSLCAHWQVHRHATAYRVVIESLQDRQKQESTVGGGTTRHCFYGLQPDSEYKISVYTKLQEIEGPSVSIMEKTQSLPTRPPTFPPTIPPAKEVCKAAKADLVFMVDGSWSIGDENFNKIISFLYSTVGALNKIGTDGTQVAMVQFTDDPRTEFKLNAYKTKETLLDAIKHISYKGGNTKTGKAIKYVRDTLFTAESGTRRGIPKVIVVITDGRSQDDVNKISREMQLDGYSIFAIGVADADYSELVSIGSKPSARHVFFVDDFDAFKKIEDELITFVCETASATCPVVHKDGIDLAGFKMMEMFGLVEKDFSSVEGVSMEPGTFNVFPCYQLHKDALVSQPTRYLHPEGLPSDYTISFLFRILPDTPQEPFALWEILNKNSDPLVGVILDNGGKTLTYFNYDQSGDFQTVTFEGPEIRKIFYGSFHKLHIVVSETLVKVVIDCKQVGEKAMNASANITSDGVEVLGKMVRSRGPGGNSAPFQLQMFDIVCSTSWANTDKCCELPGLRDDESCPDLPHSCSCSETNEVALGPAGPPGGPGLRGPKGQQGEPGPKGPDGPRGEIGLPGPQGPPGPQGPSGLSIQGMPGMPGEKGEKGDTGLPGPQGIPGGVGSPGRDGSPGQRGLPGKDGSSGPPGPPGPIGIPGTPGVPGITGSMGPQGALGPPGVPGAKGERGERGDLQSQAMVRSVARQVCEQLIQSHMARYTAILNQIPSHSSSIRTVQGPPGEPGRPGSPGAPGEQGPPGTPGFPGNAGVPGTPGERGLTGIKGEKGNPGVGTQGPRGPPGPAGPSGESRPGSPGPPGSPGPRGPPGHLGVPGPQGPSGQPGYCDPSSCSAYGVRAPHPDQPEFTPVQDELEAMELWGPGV
UniProt Q9BU20: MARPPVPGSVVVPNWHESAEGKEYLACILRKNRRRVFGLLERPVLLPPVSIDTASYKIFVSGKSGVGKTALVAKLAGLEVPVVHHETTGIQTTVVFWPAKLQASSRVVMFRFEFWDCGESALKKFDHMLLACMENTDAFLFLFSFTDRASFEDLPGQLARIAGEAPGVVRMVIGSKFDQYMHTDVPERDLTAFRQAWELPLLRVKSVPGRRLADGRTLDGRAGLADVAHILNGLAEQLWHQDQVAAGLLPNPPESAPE
UniProt Q8N9A8: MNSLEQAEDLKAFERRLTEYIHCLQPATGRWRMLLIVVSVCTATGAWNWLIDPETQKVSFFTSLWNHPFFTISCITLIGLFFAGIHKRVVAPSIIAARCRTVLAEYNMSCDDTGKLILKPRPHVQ
UniProt P14406, whole entry, looked up: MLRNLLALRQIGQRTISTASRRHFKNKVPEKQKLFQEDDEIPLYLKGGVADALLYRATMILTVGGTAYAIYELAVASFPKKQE
UniProt P12109: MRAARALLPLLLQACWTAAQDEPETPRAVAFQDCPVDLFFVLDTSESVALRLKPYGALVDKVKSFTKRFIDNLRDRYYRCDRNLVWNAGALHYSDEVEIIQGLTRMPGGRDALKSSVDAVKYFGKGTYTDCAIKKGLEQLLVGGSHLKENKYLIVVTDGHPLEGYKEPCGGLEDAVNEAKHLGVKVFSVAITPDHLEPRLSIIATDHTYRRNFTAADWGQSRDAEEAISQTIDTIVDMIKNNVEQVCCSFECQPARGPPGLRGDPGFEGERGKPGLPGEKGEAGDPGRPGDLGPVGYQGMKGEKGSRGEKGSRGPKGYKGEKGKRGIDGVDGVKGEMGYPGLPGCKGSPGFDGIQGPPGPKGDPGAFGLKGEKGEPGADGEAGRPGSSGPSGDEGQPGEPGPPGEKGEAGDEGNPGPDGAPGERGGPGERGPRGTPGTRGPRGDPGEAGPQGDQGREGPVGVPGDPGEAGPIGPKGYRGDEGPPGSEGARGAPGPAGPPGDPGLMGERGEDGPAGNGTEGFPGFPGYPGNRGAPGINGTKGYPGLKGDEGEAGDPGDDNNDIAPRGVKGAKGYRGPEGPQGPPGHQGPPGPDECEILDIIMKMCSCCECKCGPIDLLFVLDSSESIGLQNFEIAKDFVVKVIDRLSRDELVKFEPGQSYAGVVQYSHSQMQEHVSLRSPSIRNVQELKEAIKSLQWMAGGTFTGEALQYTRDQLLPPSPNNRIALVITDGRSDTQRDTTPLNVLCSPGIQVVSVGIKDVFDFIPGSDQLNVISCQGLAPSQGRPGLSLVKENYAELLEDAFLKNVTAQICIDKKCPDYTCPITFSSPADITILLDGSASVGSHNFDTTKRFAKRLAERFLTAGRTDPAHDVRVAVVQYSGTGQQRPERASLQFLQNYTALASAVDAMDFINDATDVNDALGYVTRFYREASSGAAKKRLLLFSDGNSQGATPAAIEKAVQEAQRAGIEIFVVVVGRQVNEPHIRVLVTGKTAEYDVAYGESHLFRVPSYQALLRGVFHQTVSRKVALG
UniProt G9CGD6: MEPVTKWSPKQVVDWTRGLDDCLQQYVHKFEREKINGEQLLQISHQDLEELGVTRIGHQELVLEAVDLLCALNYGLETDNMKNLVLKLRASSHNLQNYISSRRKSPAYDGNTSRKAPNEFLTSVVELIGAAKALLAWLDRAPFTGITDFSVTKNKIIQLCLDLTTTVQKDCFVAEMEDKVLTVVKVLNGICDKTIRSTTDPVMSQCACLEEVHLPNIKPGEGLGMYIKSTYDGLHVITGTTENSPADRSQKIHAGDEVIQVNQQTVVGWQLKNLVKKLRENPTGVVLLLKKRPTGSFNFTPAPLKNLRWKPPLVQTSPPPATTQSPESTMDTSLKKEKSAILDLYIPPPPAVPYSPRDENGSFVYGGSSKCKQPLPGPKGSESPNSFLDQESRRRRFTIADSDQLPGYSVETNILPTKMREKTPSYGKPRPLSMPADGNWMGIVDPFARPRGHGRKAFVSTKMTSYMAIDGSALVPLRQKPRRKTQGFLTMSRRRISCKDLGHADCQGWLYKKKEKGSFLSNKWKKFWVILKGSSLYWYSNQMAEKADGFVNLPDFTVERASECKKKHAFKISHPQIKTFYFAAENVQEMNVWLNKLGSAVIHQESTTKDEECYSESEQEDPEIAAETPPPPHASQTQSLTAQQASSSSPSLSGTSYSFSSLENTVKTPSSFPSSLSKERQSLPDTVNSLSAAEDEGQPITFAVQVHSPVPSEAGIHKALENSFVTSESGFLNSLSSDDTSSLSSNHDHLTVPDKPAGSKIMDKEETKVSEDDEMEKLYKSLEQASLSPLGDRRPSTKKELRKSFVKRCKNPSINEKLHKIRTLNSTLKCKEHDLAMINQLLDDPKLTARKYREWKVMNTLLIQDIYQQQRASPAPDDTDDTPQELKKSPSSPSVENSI
UniProt Q9UNS2: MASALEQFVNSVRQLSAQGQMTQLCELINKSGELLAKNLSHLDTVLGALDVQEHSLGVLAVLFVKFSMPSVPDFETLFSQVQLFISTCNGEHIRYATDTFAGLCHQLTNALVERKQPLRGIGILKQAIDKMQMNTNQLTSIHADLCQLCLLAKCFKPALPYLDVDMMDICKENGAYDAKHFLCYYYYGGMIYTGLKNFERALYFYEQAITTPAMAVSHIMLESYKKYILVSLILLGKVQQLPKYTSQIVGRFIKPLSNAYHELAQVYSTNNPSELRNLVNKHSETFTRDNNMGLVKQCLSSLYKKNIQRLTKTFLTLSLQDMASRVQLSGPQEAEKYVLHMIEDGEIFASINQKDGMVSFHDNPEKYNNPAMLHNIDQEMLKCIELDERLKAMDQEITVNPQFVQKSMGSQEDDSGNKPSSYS
UniProt Q96FN4: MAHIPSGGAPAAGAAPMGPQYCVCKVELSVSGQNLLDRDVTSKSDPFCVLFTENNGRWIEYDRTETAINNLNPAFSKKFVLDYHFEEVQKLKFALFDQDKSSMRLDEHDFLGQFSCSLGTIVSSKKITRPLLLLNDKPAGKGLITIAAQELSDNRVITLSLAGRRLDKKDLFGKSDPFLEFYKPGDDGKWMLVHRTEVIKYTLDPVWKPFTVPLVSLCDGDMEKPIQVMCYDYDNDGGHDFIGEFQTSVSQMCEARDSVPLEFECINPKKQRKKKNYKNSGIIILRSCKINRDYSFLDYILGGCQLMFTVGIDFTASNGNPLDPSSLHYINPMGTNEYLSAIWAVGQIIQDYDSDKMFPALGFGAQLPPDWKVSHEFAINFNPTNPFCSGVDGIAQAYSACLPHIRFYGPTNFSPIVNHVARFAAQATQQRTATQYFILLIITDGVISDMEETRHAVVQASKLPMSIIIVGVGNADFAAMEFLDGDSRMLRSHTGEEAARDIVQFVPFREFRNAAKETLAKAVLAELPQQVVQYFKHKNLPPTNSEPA
UniProt Q8N4Y2: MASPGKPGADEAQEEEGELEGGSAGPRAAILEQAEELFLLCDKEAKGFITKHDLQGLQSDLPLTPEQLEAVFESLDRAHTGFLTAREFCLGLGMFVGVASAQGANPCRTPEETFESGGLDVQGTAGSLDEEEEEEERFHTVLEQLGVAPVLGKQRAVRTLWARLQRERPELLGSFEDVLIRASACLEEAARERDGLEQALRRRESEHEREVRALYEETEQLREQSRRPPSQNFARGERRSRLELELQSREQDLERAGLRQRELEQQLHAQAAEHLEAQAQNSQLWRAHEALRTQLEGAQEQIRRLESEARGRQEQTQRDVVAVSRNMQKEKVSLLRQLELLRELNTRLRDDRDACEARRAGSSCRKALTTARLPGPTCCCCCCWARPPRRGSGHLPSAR
UniProt Q9BWP8: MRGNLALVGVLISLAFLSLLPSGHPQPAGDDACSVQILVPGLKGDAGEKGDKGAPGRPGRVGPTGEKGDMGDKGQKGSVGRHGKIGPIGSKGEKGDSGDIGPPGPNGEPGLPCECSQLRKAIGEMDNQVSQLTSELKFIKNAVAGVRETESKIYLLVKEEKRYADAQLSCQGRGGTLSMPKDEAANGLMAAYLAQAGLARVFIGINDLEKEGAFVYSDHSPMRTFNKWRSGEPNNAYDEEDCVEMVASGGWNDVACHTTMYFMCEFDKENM
UniProt Q14061: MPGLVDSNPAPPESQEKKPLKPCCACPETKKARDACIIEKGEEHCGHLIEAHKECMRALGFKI
UniProt Q9H3G5: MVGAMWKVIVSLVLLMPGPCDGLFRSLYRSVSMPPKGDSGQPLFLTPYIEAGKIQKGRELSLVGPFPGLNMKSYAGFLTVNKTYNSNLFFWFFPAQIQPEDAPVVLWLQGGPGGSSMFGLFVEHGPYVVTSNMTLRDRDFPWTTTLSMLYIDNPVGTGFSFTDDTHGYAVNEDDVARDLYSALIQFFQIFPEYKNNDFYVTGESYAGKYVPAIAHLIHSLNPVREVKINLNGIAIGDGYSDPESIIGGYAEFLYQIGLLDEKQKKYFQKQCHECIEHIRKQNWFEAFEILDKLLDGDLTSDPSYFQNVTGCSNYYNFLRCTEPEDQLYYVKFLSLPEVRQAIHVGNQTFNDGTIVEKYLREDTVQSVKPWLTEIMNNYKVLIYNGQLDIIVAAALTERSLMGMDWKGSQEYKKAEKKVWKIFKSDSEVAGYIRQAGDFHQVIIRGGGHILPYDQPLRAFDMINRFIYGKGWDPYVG
UniProt O14810: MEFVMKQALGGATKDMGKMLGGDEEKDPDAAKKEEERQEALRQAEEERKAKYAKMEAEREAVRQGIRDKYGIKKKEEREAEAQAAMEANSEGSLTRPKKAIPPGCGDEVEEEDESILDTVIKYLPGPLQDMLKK

Tubastatin A = compound: CN1CCc2c(c3ccccc3n2Cc2ccc(C(=O)NO)cc2)C1 [Tubastatin A]
How it was run: as §1

[1] = compound: CNC(=O)C1=CC=CC=C1NC2=NC(=NC=C2Cl)NC3=C(C=C(C=C3)N4CCOCC4)OC
How it was run: as §1

defactinib = compound: CNC(=O)c1ccc(Nc2ncc(C(F)(F)F)c(NCc3nccnc3N(C)S(C)(=O)=O)n2)cc1 [defactinib]
How it was run: as §1

[2] = compound: CNc1nc(-c2ccc3c(N)n[nH]c3c2)cc(N2C[C@@H](C(=O)NC3CCCCC3)CC[C@H]2C)n1
How it was run: as §1

encorafenib = compound: COC(=O)N[C@@H](C)CNc1nccc(-c2cn(C(C)C)nc2-c2cc(Cl)cc(NS(C)(=O)=O)c2F)n1 [encorafenib]
How it was run: as §1

[3] = compound: COC(=O)[C@H](CCSC)NC(=O)C1=C(C=C(C=C1)NC[C@H](CS)N)C2=CC=CC=C2
How it was run: as §1

pictilisib = compound: CS(=O)(=O)N1CCN(Cc2cc3nc(-c4cccc5[nH]ncc45)nc(N4CCOCC4)c3s2)CC1 [pictilisib]
How it was run: as §1

crizotinib = compound: C[C@@H](Oc1cc(-c2cnn(C3CCNCC3)c2)cnc1N)c1c(Cl)ccc(F)c1Cl [crizotinib]
How it was run: as §1

[4] = compound: C[C@H](C1=CC=C(C=C1)C(=O)NC2=C3C=CNC3=NC=C2)N
How it was run: as §1

duvelisib = compound: C[C@H](Nc1ncnc2nc[nH]c12)c1cc2cccc(Cl)c2c(=O)n1-c1ccccc1 [duvelisib]
How it was run: as §1

gandotinib = compound: Cc1cc(Nc2cc(CN3CCOCC3)c3nc(C)c(Cc4ccc(Cl)cc4F)n3n2)n[nH]1 [gandotinib]
How it was run: as §1

tozasertib = compound: Cc1cc(Nc2cc(N3CCN(C)CC3)nc(Sc3ccc(NC(=O)C4CC4)cc3)n2)n[nH]1 [tozasertib]
How it was run: as §1

doramapimod = compound: Cc1ccc(-n2nc(C(C)(C)C)cc2NC(=O)Nc2ccc(OCCN3CCOCC3)c3ccccc23)cc1 [doramapimod]
How it was run: as §1

bafetinib = compound: Cc1ccc(NC(=O)c2ccc(CN3CC[C@H](N(C)C)C3)c(C(F)(F)F)c2)cc1Nc1nccc(-c2cncnc2)n1 [bafetinib]
How it was run: as §1

[5] = compound: Cc1cccc(CC(=O)N2CCc3c2ccc(-c2cn(C)c4ncnc(N)c24)c3F)n1
How it was run: as §1

alisertib = compound: COc1cc(Nc2ncc3c(n2)-c2ccc(Cl)cc2C(c2c(F)cccc2OC)=NC3)ccc1C(=O)O [alisertib]
How it was run: as §1

gefitinib = compound: COc1cc2ncnc(Nc3ccc(F)c(Cl)c3)c2cc1OCCCN1CCOCC1 [gefitinib]
How it was run: as §1

[6] = compound: COc1cc2nc(-c3cc(F)ccc3O)nc(N[C@@H]3CNC[C@H]3C(C)(C)O)c2cc1OC
How it was run: as §1

lapatinib = compound: CS(=O)(=O)CCNCc1ccc(-c2ccc3ncnc(Nc4ccc(OCc5cccc(F)c5)c(Cl)c4)c3c2)o1 [lapatinib]
How it was run: as §1

Measured: log2 fold change

COA5 (UniProt Q86WW8)
inactive: alvocidib 0.125 | Tubastatin A -0.074 | [1] 0.091 | defactinib -0.018 | [2] 0.002 | encorafenib -0.012 | [3] 0.05 | pictilisib -0.01 | crizotinib 0.019 | [4] 0.09 | duvelisib -0.049 | gandotinib -0.113 | tozasertib -0.094 | doramapimod -0.054 | bafetinib -0.009 | [5] -0.093

CNNM1 (UniProt Q9NRU3)
inactive: [1] 0.025 | defactinib 0.031 | [2] 0.131 | encorafenib -0.019 | [3] 0.042 | alisertib -0.015 | gefitinib -0.005 | duvelisib 0.013 | tozasertib -0.05

COL14A1 (UniProt Q05707)
inactive: alvocidib -0.049 | Tubastatin A 0.14 | [1] -0.001 | defactinib 0.021 | [2] 0.031 | alisertib -0.095 | [6] -0.02 | gefitinib -0.028 | lapatinib 0.071 | pictilisib -0.329 | crizotinib 0.016 | [4] 0.098 | duvelisib 0.067 | gandotinib 0.147 | doramapimod -0.089 | bafetinib 0.015 | [5] -0.007

CPLANE2 (UniProt Q9BU20)
inactive: Tubastatin A 0.047 | [1] -0.153 | crizotinib -0.094 | doramapimod 0.118

CNOT7 (UniProt H0YBT3)
inactive: alvocidib 0.051 | Tubastatin A 0.091 | crizotinib 0.019 | [4] -0.154 | gandotinib -0.127 | doramapimod 0.093 | [5] 0.186

COPS2 (UniProt P61201)
inactive: alvocidib -0.017 | [2] 0.088 | encorafenib 0.002 | [3] -0.016 | alisertib 0.027 | [6] -0.04 | gefitinib 0.219 | lapatinib 0.001 | crizotinib -0.088 | [4] -0.024 | duvelisib -0.049 | gandotinib 0.071 | tozasertib -0.04 | doramapimod -0.066 | [5] -0.034

CNTROB isoform 2 (UniProt Q8N137)
inactive: [1] 0.066 | [2] -0.236 | duvelisib -0.216

CNEP1R1 isoform 2 (UniProt Q8N9A8)
inactive: alisertib 0.263 | gefitinib -0.098 | pictilisib 0.003 | bafetinib -0.034

COX7A2 (UniProt P14406)
inactive: alvocidib 0.045 | Tubastatin A 0.059 | [1] 0.008 | defactinib 0.058 | encorafenib -0.02 | [3] 0.026 | alisertib 0.052 | [6] 0.003 | gefitinib -0.076 | lapatinib -0.019 | pictilisib -0.053 | crizotinib -0.048 | [4] 0.041 | gandotinib 0.036 | tozasertib 0.063 | doramapimod 0.047 | bafetinib -0.043 | [5] -0.014

COL6A1 (UniProt P12109)
inactive: alvocidib 0.024 | alisertib 0.114 | gefitinib -0.074 | [4] 0.11 | gandotinib -0.073 | [5] 0

CNK3/IPCEF1 isoform 2 (UniProt G9CGD6)
active: [4] -1.84
inactive: alvocidib -0.483 | Tubastatin A -0.048 | [1] -0.012 | defactinib -0.082 | [2] -0.007 | encorafenib 0.041 | [3] -0.062 | duvelisib 0.129 | gandotinib 0.326 | tozasertib 0.105 | [5] 0.4

COPS3 isoform 2 (UniProt Q9UNS2)
inactive: alvocidib -0.207 | defactinib -0.142 | encorafenib -0.101 | [3] 0.014 | alisertib -0.074 | [6] 0.455 | gefitinib -0.013 | lapatinib -0.144 | [4] -0.297 | gandotinib 0.121 | tozasertib -0.132 | [5] 0.228

CPNE2 (UniProt Q96FN4)
inactive: alvocidib -0.234 | Tubastatin A 0.004 | [1] 0.016 | [2] 0.067 | encorafenib 0.012 | [3] -0.063 | alisertib 0.015 | [6] -0.01 | gefitinib -0.086 | lapatinib 0.036 | pictilisib -0.179 | crizotinib 0.045 | [4] -0.323 | duvelisib 0.034 | gandotinib 0.119 | tozasertib 0.014 | doramapimod -0.083 | bafetinib 0.296 | [5] 0.229

COL6A3 (UniProt P12111)
inactive: alvocidib 0.045 | Tubastatin A 0.017 | [1] -0.126 | [2] 0.13 | alisertib -0.323 | gefitinib 0.164 | pictilisib -0.019 | crizotinib -0.023 | [4] -0.04 | duvelisib 0.013 | gandotinib -0.036 | doramapimod 0.032 | bafetinib 0.036 | [5] 0.048

CNTN4 (UniProt Q8IWV2)
inactive: alvocidib -0.148 | Tubastatin A 0.185 | [1] 0.021 | defactinib -0.104 | encorafenib -0.193 | [3] 0.124 | alisertib -0.074 | [6] 0.03 | gefitinib -0.022 | lapatinib -0.052 | pictilisib -0.066 | crizotinib -0.268 | [4] -0.432 | gandotinib 0.545 | tozasertib -0.182 | doramapimod -0.067 | bafetinib -0.145 | [5] 0.484

COPS9 (UniProt Q8WXC6)
inactive: Tubastatin A -0.272 | [1] 0.087 | [6] 0.163 | lapatinib 0.148

CRACR2B (UniProt Q8N4Y2)
inactive: [1] 0.051 | [2] 0.041 | duvelisib 0.202

COLEC11 isoform 10 (UniProt Q9BWP8)
inactive: alvocidib 0.047 | Tubastatin A -0.023 | [1] 0.002 | defactinib 0.1 | [2] -0.088 | encorafenib 0.131 | [3] -0.086 | pictilisib -0.062 | [4] 0.006 | duvelisib 0.007 | gandotinib -0.024 | tozasertib 0.045 | bafetinib -0.242 | [5] 0.017

Two neighbouring entries already listed:
CNTN4 (UniProt Q8IWV2)
inactive: alvocidib -0.148 | Tubastatin A 0.185 | [1] 0.021 | defactinib -0.104 | encorafenib -0.193 | [3] 0.124 | alisertib -0.074 | [6] 0.03 | gefitinib -0.022 | lapatinib -0.052 | pictilisib -0.066 | crizotinib -0.268 | [4] -0.432 | gandotinib 0.545 | tozasertib -0.182 | doramapimod -0.067 | bafetinib -0.145 | [5] 0.484

COPS9 (UniProt Q8WXC6)
inactive: Tubastatin A -0.272 | [1] 0.087 | [6] 0.163 | lapatinib 0.148

Additional results:

COL12A1 (UniProt Q99715)
inactive: [1] 0.095 | defactinib -0.059 | [2] 0.531 | encorafenib 0.003 | [3] -0.092 | lapatinib -0.117 | crizotinib -0.031 | duvelisib 0.086 | tozasertib -0.021 | doramapimod 0.88
active: [6] 1.32

COX17 (UniProt Q14061)
inactive: alvocidib 0.078 | [1] 0.113 | alisertib 0.04 | [6] -0.08 | gefitinib 0.153 | lapatinib 0.061 | crizotinib -0.003 | [4] 0.178 | gandotinib -0.113 | doramapimod -0.139 | [5] -0.102

CPVL (UniProt Q9H3G5)
inactive: alvocidib -0.054 | Tubastatin A 0.137 | [1] 0.008 | defactinib -0.137 | [2] 0.173 | alisertib 0.06 | [6] 0.036 | gefitinib -0.063 | lapatinib -0.065 | pictilisib 0.035 | crizotinib -0.293 | [4] -0.152 | duvelisib 0.026 | gandotinib 0.064 | doramapimod 0.153 | bafetinib 0.072 | [5] 0.116

CPEB3 (UniProt Q8NE35)
inactive: Tubastatin A 0.14 | [1] 0.065 | crizotinib 0.038 | doramapimod 0.053

COQ8B (UniProt Q96D53)
inactive: alvocidib -0.293 | [1] -0.04 | encorafenib -0.162 | [3] 0.436 | alisertib 0.362 | gefitinib -0.119 | crizotinib -0.145 | [4] -0.303 | gandotinib 0.163 | tozasertib 0.024 | doramapimod -0.065 | [5] 0.175

CPLX1 (UniProt O14810)
inactive: Tubastatin A 0.04 | defactinib 0.144 | [2] -0.127 | encorafenib -0.017 | [3] -0.415 | [6] -0.005 | lapatinib -0.095 | duvelisib -0.001 | tozasertib 0.167

CNRIP1 (UniProt Q96F85)
inactive: Tubastatin A -0.187 | [1] 0.037 | defactinib -0.486 | [2] -0.038 | [6] 0.124 | lapatinib -0.198 | pictilisib -0.03 | crizotinib -0.08 | duvelisib -0.138 | doramapimod 0.403 | bafetinib 0.232
